The supplement of paper PMC10849652
The other results are listed elsewhere or left out.

Amino acid sequences for entries named in this document (tags omitted). A change or cut given only in a name is not applied to a line headed by its entry.
UniProt P69891: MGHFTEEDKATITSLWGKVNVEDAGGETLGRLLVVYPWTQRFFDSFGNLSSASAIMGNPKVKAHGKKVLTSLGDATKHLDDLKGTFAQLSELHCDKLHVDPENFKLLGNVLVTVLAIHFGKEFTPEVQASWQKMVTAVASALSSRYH
UniProt P78417: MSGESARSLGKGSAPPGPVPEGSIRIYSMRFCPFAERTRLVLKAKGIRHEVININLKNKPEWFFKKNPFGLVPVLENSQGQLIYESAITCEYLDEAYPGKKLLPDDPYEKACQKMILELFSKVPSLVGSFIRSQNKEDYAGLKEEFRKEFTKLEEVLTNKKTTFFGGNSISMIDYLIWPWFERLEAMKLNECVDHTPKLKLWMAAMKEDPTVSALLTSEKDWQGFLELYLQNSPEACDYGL
UniProt P40939: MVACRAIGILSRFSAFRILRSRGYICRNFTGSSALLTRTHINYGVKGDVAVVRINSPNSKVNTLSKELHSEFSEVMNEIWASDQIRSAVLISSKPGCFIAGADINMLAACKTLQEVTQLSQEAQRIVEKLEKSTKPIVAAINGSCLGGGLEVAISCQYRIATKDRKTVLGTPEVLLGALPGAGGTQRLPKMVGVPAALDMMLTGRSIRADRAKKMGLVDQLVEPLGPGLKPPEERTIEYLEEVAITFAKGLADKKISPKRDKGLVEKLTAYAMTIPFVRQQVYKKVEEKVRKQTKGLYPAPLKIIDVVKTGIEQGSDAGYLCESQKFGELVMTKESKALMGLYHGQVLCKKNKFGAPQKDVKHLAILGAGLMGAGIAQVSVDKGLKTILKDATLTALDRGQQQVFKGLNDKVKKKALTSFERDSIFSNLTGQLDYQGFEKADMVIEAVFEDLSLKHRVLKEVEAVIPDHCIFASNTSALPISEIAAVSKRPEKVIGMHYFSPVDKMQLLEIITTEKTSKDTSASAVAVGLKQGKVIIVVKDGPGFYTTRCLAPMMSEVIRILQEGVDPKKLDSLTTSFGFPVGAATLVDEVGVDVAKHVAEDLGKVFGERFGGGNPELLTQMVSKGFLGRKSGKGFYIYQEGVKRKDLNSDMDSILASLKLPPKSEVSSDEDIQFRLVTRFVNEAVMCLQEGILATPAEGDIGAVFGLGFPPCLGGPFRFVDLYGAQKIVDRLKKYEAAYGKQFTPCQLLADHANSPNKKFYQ
UniProt Q9P0R6: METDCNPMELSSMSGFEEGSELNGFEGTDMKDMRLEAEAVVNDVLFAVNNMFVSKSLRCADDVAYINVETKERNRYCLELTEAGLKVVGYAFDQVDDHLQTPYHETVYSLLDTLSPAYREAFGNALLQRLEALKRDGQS
UniProt Q9NVX0: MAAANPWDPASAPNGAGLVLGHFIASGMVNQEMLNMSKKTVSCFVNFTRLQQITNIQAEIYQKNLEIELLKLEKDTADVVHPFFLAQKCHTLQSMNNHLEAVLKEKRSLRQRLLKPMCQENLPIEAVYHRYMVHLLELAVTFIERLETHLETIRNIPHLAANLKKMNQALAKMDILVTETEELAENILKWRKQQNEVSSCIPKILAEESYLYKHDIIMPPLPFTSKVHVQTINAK
UniProt P69892: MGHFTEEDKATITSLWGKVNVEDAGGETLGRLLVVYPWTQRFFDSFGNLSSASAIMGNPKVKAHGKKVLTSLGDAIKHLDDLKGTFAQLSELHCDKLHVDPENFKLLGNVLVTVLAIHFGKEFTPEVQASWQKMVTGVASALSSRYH
UniProt Q9Y5Q9: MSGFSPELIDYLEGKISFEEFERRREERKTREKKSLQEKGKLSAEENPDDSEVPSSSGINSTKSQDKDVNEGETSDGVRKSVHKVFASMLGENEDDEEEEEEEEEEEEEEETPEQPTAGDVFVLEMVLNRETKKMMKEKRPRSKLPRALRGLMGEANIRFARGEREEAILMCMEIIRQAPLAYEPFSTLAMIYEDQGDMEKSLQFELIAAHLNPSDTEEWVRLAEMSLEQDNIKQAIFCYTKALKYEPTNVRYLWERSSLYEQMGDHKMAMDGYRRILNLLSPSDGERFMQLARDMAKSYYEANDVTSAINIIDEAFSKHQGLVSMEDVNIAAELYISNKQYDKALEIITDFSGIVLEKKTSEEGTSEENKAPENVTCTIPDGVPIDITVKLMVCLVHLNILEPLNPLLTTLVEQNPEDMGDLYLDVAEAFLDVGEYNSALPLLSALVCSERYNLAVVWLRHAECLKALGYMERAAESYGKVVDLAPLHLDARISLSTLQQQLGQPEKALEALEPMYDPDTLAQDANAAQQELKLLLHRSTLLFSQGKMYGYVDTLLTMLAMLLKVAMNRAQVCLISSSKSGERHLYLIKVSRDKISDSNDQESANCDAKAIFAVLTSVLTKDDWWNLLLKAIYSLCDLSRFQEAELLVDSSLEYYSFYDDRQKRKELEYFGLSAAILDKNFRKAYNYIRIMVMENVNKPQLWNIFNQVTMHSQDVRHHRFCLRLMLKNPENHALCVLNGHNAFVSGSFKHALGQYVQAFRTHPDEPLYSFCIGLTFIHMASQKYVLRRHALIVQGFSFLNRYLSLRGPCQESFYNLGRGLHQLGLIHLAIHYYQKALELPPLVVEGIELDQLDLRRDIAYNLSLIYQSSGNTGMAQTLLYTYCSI
UniProt P13807: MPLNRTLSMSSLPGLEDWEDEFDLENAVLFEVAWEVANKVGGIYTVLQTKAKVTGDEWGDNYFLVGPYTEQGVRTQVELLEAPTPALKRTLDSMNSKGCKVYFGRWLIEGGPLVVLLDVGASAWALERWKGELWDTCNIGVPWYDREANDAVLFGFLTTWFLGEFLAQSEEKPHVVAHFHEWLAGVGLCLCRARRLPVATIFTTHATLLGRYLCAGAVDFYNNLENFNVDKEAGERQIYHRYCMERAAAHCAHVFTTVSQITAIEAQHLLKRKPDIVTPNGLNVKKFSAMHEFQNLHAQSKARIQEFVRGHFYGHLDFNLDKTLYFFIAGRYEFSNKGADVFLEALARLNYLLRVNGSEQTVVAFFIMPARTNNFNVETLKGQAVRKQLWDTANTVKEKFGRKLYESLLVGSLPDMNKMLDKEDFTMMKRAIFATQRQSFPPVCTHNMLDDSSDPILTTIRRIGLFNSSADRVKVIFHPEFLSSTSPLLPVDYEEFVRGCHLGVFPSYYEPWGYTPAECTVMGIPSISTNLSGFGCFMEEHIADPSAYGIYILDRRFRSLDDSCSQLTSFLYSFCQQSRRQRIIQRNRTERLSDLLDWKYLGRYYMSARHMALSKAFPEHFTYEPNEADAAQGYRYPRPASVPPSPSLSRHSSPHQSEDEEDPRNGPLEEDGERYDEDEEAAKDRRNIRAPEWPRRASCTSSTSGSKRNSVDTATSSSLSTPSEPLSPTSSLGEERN
UniProt P55084: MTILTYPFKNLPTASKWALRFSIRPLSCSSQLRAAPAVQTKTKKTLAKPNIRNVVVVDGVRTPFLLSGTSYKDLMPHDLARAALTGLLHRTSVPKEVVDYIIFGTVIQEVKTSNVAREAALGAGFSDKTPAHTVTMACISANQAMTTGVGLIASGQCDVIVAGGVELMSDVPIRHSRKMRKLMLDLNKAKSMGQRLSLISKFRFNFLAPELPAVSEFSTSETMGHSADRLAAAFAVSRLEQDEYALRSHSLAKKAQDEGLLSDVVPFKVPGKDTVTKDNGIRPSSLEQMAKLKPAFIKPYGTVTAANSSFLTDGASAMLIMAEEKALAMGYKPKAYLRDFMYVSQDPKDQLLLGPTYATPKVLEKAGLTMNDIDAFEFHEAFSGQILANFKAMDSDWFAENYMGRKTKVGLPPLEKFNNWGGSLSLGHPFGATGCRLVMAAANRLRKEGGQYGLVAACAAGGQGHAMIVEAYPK
UniProt P36969, whole entry, looked up: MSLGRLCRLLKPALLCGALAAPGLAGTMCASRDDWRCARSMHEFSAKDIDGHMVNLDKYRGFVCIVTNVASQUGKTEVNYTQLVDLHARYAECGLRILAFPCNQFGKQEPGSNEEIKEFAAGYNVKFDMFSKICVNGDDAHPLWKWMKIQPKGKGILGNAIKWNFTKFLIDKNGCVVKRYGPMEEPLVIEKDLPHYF
UniProt P21266: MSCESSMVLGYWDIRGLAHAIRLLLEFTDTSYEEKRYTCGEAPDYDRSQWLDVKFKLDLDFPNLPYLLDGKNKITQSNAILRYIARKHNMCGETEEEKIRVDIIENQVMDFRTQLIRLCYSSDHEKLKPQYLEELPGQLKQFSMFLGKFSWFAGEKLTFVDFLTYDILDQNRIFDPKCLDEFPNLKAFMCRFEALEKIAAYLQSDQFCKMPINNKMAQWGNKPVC
UniProt O15379: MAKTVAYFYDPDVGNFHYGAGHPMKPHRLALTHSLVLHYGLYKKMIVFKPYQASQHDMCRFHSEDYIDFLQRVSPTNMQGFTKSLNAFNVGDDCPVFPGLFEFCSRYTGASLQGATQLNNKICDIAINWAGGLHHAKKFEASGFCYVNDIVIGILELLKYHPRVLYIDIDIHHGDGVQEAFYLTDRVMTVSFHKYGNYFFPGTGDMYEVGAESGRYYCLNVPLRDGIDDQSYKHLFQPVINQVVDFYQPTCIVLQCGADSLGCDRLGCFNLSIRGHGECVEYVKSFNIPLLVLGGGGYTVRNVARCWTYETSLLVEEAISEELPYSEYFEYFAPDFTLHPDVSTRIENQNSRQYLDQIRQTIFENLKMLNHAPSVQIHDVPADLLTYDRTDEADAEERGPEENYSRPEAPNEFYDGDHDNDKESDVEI
UniProt Q13889: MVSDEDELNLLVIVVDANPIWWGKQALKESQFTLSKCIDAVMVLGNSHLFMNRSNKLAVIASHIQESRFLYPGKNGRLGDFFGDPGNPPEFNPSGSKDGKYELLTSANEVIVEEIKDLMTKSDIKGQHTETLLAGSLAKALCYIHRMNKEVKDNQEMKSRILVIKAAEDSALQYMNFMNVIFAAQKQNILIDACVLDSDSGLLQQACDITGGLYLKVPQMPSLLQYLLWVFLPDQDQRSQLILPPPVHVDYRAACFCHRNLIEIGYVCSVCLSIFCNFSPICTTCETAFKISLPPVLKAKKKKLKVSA
UniProt Q68CZ6: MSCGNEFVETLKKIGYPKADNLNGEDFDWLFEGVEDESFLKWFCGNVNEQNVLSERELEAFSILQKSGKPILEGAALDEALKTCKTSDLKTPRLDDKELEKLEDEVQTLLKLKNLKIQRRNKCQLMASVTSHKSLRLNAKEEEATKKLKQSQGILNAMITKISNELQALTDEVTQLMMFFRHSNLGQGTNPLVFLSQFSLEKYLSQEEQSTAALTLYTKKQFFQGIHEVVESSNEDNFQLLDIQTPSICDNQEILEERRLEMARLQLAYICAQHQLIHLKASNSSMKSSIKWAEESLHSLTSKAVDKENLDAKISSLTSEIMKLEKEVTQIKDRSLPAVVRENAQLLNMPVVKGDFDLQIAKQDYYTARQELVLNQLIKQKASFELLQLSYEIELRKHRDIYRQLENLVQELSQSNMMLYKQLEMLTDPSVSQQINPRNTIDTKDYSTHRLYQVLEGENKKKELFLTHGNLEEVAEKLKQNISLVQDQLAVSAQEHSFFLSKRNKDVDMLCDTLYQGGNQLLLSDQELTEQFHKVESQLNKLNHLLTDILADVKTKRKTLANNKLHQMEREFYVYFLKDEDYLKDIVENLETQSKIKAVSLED
UniProt Q969F1: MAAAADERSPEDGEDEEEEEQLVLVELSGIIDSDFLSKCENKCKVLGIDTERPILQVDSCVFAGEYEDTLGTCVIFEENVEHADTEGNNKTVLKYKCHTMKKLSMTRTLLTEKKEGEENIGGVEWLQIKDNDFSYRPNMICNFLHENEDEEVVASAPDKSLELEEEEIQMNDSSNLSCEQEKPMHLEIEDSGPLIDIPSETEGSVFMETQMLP
UniProt P52655, whole entry, looked up: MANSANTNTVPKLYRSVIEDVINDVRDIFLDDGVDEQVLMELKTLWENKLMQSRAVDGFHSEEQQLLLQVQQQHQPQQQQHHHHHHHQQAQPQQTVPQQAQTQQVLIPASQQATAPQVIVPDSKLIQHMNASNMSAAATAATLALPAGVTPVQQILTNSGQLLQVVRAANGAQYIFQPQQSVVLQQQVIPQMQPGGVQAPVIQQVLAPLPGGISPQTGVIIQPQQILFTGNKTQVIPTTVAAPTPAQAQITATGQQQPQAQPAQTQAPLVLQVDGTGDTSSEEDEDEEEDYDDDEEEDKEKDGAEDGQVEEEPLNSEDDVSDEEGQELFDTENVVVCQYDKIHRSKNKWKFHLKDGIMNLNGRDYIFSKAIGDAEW
UniProt P0C0S5, whole entry, looked up: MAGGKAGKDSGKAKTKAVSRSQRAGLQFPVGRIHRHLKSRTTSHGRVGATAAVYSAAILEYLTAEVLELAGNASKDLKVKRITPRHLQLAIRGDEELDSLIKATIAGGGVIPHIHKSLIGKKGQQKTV
UniProt Q9H0R4: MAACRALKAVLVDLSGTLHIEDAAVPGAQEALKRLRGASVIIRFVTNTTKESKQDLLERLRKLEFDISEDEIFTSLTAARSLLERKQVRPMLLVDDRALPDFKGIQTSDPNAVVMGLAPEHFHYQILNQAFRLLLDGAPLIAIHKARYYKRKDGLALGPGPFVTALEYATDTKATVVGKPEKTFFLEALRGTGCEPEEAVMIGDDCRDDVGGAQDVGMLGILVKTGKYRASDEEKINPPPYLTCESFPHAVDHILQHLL

Compound: Cc1cn(-c2cc(NC(=O)c3ccc(C)c(Nc4nccc(-c5cccnc5)n4)c3)cc(C(F)(F)F)c2)cn1 [nilotinib]
Experiment: log2 fold change, soluble protein after heating vs DMSO (PISA); higher = thermal stabilisation; K562 lysate, 10 uM; active = over 0.2 and 3.5 SD of the protein, either way, in both replicates (recomputed)
Summary of the method: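 A 30 min treatment with 10 μM compound was applied to crude K562 extract at 1 mg/mL protein in PBS pH 7.4 with 1 mM MgCl2. Heating for 3 min spanned 48°C-58°C, after which aliquots were pooled, adjusted to 0.5% NP-40 at 4°C and spun at 21,000xg for 90 min. TMTpro 16plex LC-MS/MS of the supernatant, with channel sums equalised, gave values recorded as log-two fold change in thermal stability against solvent controls, from duplicates.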

log2 fold change, inactive:
HAGH (UniProt Q16775) 0.03
HDGFL2 isoform 2 (UniProt Q7Z4V5) -0.005
GTPBP2 (UniProt Q9BX10) 0.016
H1FX (UniProt Q92522) 0.03
GSTZ1 (UniProt G3V4T6) 0.026
HBG1 (UniProt P69891) 0.054
H4C1 (UniProt P62805) 0.051
GSTO1 (UniProt P78417) 0.014
GSR (UniProt P00390) 0.06
HBD (UniProt P02042) 0.064
HADHA (UniProt P40939) 0.051
GSKIP (UniProt Q9P0R6) 0.031
HADH isoform 2 (UniProt Q16836) -0.028
GRAP2 (UniProt O75791) 0.015
HAUS2 (UniProt Q9NVX0) 0.036
HBG2 (UniProt P69892) 0.087
GTF3C3 (UniProt Q9Y5Q9) 0.035
GYS1 (UniProt P13807) -0.021
HADHB (UniProt P55084) 0.052
GPX4 (UniProt P36969) -0.011
HEATR1 (UniProt Q9H583) 0.021
HDLBP, A0A024R4E5 -0.011
GTF2F2 (UniProt P13984) -0.014
GSTM3 (UniProt P21266) -0.041
HDAC3 (UniProt O15379) -0.079
GTF2H3 (UniProt Q13889) 0.012
HDAC6 (UniProt Q9UBN7) 0.078
HBS1L isoform 2 (UniProt Q9Y450) -0.069
GRHPR (UniProt Q9UBQ7) 0
HAUS3 (UniProt Q68CZ6) 0.02
GTF3C6 (UniProt Q969F1) -0.034
GTF2A1 (UniProt P52655) 0.024
H2AZ1 (UniProt P0C0S5) -0.004
GXYLT1 (UniProt Q4G148) 0.043
HDHD2 (UniProt Q9H0R4) 0.047
HDAC1 (UniProt Q13547) 0.01
HEATR5A (UniProt Q86XA9) 0.005
GTF2E2 (UniProt P29084) -0.019
GRWD1 (UniProt Q9BQ67) -0.018

A section from further up:
log2 fold change, inactive:
GTPBP2 (UniProt Q9BX10) 0.016
H1FX (UniProt Q92522) 0.03
